Results are given in words; binding and its absence hold for the method and conditions named. In cells and extracts the contact can be indirect. A yes stands for co-enrichment or nearness to the bait. Other partners may have been found.
B1: mitochondrial transcription factor A (TFAM), Q00059 43-246 (protein)
chain: SSVLASCPKKPVSSYLRFSKEQLPIFKAQNPDAKTTELIRRIAQRWRELPDSKKKIYQDAYRAEWQVYKEEISRFKEQLTPSQIMSLEKEIMDKHLKRKAMTKKKELTLLGKPKRPRSAYNVYVAERFQEAKGDSPQEKLKTVKENWKNLSDSEKELYIQHAKEDETRYHNEMKSWEEQMIEVGRKDLLRRTIKKQRKYGAEEC
B2: mitochondrial replicative helicase Twinkle (protein, UniProt Q96RR1 32-684)
chain: APGPPRRRYRKETLQALDMPVLPVTATEIRQYLRGHGIPFQDGHSCLRALSPFAESSQLKGQTGVTTSFSLFIDKTTGHFLCMTSLAEGSWEDFQASVEGRGDGAREGFLLSKAPEFEDSEEVRRIWNRAIPLWELPDQEEVQLADTMFGLTKVTDDTLKRFSVRYLRPARSLVFPWFSPGGSGLRGLKLLEAKCQGDGVSYEETTIPRPSAYHNLFGLPLISRRDAEVVLTSRELDSLALNQSTGLPTLTLPRGTTCLPPALLPYLEQFRRIVFWLGDDLRSWEAAKLFARKLNPKRCFLVRPGDQQPRPLEALNGGFNLSRILRTALPAWHKSIVSFRQLREEVLGELSNVEQAAGLRWSRFPDLNRILKGHRKGELTVFTGPTGSGKTTFISEYALDLCSQGVNTLWGSFEISNVRLARVMLTQFAEGRLEDQLDKYDHWADRFEDLPLYFMTFHGQQSIRTVIDTMQHAVYVYDICHVIIDNLQFMMGHEQLSTDRIAAQDYIIGVFRKFATDNNCHVTLVIHPRKEDDDKELQTASIFGSAKASQEADNVLILQDRKLVTGPGKRYLQVSKNRFDGDVGVFPLEFNKNSLTFSIPPKNKARLKKIKDDTGPVAKKPSSGKKGATTQNSEICSGQAPTPDQPDTSKRSK
B3: mitochondrial single-strand binding protein (mtSSB) (protein, UniProt Q04837 17-148)
chain: ESETTTSLVLERSLNRVHLLGRVGQDPVLRQVEGKNPVTIFSLATNEMWRSGDSEVYQLGDVSQKTTWHRISVFRPGLRDVAYQYVKKGSRIYLEGKIDYGEYMDKNNVRRQATTIIADNIIFLSDQTKEKE

Chains of the proteins cited; added tags and fusions are not shown.
UniProt Q9BSJ5: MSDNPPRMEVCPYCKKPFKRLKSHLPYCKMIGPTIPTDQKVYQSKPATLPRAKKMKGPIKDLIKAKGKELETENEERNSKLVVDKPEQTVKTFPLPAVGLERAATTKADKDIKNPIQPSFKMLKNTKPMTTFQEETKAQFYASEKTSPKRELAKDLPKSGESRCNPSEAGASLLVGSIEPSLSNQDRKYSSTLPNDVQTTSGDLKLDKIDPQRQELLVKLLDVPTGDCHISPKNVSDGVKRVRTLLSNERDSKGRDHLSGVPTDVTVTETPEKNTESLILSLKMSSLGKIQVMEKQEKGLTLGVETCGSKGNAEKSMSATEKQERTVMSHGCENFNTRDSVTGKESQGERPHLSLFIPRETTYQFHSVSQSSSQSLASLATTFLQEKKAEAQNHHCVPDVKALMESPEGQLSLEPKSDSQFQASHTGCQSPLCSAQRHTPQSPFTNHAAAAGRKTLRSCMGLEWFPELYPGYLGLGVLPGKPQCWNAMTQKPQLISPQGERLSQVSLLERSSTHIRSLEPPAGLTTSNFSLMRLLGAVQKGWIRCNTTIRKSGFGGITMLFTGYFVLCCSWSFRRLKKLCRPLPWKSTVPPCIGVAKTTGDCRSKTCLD

How the values were obtained:
[1] = target: C17orf80–BirA*(N), N-terminally tagged C17orf80–BirA* fusion (human), Q9BSJ5; assay: proximity labelling; BioID: Flp-In T-REx 293 cells expressing C17orf80–BirA* fusions, induced with AnTET (1 ng/ml N-term, 3 ng/ml C-term) and given biotin for 22–24 h; control: the same cells with biotin but without AnTET; streptavidin–agarose pulldown from total cell lysates, on-bead trypsin digestion, LC-MS/MS, four biological replicates, FDR<0.05, S0=0.1; conditions: remark: other sources report otherwise
[2] = target: C17orf80–BirA*(N), N-terminally tagged C17orf80–BirA* fusion (human) (UniProt Q9BSJ5); assay: as above

| Binder | binding [1] | binding [2] |
| --- | --- | --- |
| B1 | binds | – |
| B2 | – | binds |
| B3 | – | binds |

— article PMC10445727
